Reference: patent US20060106015A1, “Novel use of benzothiazole derivatives” (priority 2002, published 2006)
Some results were stated once for a whole list of compounds, not compound by compound.

Molecular target: T1, recombinant human Itk kinase domain fused with GST (Homo sapiens, UniProt Q08881)
T1 construct: recombinant human Itk kinase domain fused with GST; GST (Glutathione S-Transferase); made in house; host or cells: High five insect cells
T1 sequence (Q08881 363-615 limits assumed): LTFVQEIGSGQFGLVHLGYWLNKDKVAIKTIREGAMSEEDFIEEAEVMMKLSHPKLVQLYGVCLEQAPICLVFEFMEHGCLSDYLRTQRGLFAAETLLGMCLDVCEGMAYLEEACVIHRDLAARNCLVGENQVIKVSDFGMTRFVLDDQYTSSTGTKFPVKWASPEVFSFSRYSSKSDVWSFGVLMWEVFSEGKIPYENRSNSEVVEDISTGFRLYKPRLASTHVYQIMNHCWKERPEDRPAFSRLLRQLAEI
Experiment: Itk LANCE TRF Assay
Assay type: biochemical
Details: 50 μM ATP, 2 μM peptide substrate, 50 minutes RT; read-out: IC50 values for inhibition of Itk activity
Description: The Itk kinase assay utilized recombinant human Itk kinase domain fused with GST (Glutathione S-Transferase). The protein was expressed in High five insect cells, purified in one step on an affinity chromatography glutathione column and stored in 50 mM Tris/HCl (pH 7.6), 150 mM NaCl, 5% (w/v) mannitol, 1 mM DTT, 30% glycerol at −70° C. The kinase substrate used in the assay was a biotinylated peptide derived from the Src-optimal substrate (Nair et al, J. Med. Chem., 38: 4276, 1995; biotin-AEEEIYGEFEAKKKK).
The assay additions were as follows: Test compounds (or controls; 1 μL in 100% DMSO) were added to black 96-well flat-bottomed plates (Greiner 655076) followed by 20 μL Itk in assay buffer and the reaction was started by adding 20 μL ATP and peptide substrate in assay buffer. The assay buffer constitution during phosphorylation was: 50 mM HEPES (pH 6.8), 10 mM MgCl2, 0.015% Brij 35, 1 mM DTT, 10% glycerol, 160 ng/well Itk, 2 μM peptide substrate and 50 μM ATP. The assay was stopped after 50 minutes (RT) by adding 150 μL ice-cold Stop solution (50 mM Tris/HCl, pH 7.5, 10 mM EDTA, 0.9% NaCl and 0.1% BSA) together with LANCE reagents (2 nM PT66-Eu^3+, Wallac AD0069 and 5 μg/ml Streptavidin-APC, Wallac AD0059. Both concentrations were final in stopped assay solution). The plates were measured on a Wallac 1420 Victor 2 instrument with TRF settings after 1 h incubation, and the ratio (665 signal/615 signal)*10000 was used to calculate the inhibition values. IC50 values were determined using XLfit.

Molecule: O=C(c1ccc2nc(-c3ccccc3O)sc2c1)N1CCCC1 [Example 15, 2-[6-(Pyrrolidin-1-ylcarbonyl)-1,3-benzothiazol-2-yl]phenol]
- IC50: < 25 µM

Molecule: Oc1cc(Cl)ccc1-c1nc2ccc(CN3CCCC3)cc2s1 [Example 27, 5-Chloro-2-[6-(pyrrolidin-1-ylmethyl)-1,3-benzothiazol-2-yl]phenol]
- IC50: < 25 µM

Molecule: COC(=O)c1ccc(COc2cccc(O)c2-c2nc3ccc(C(=O)N(C)CCN(C)C)cc3s2)cc1 [Example 21, Methyl 4-{[2-(6-{[[2-(dimethylamino)ethyl](methyl)aminol]-carbonyl}-1,3-benzothiazol-2-yl)-3-hydroxyphenoxy]methyl}benzoate]
- IC50: < 25 µM

Molecule: O=C(c1ccc2nc(-c3cc(F)ccc3O)sc2c1)N1CCCC1 [Example 12, 4-Fluoro-2-[6-(pyrrolidin-1-ylcarbonyl)-1,3-benzothiazol-2-yl]phenol]
- IC50: < 25 µM

Molecule: CN(C)C(=O)c1ccc2nc(-c3ccccc3O)sc2c1 [Example 47, N,N-Dimethyl-2-(2-hydroxyphenyl)-1,3-benzothiazole-6-carboxamide]
- IC50: < 25 µM

Molecule: CCOc1cncc(O)c1-c1nc2ccc(C(=O)N3CCCC3)cc2s1 [Example 22, 5-Ethoxy-4-[6-(pyrrolidin-1-ylcarbonyl)-1,3-benzothiazol-2-yl]pyridin-3-ol]
- IC50: < 25 µM

Molecule: COc1cccc(O)c1-c1nc2ccc(C(=O)O)cc2s1 [Example 2, 2-(2-Hydroxy-6-methoxyphenyl)-1,3-benzothiazole-6-carboxylic acid]
- IC50: < 25 µM

Molecule: Oc1ccccc1-c1nc2ccc(CN3CCCC3)cc2s1 [Example 29, 2-[6-(Pyrrolidin-1-ylmethyl)-1,3-benzothiazol-2-yl]phenol]
- IC50: < 25 µM

Molecule: Oc1cc(Cl)ccc1-c1nc2ccc(OCC(O)CN3CCCC3)cc2s1 (stereo not drawn) [Example 50, 5-Chloro-2-[6-(2-hydroxy-3-pyrrolidin-1-yl-propoxy)-1,3-benzothiazol-2-yl]-phenol]
- IC50: < 25 µM

Molecule: COc1cccc(O)c1-c1nc2ccc(CN3CCCC3)cc2s1 [Example 30]
- IC50: < 25 µM

Molecule: CCN(CC)C(=O)c1ccc2nc(-c3ccc(OC)cc3O)sc2c1 [Example 18, N,N-Diethyl-2-(2-hydroxy-4-methoxyphenyl)-1,3-benzothiazole-6-carboxamide]
- IC50: < 25 µM

Molecule: Oc1cccnc1-c1nc2ccc(CN3CCCC3)cc2s1 [Example 38, 2-[6-(Pyrrolidin-1-ylmethyl)-1,3-benzothiazol-2-yl]pyridin-3-ol]
- IC50: < 25 µM

Molecule: Oc1ccccc1-c1nc2cc(CN3CCCC3)ccc2s1 [Example 39, 2-[5-(Pyrrolidin-1-ylmethyl)-1,3-benzothiazol-2-yl]phenol]
- IC50: < 25 µM

Molecule: COc1ccc(O)c(-c2nc3ccc(CN4CCCC4)cc3s2)c1 [Example 31, 4-Methoxy-2-[6-(pyrrolidin-1-ylmethyl)-1,3-benzothiazol-2-yl]phenol]
- IC50: < 25 µM

Molecule: CN(C)CCN(C)C(=O)c1ccc2nc(-c3ccc(Cl)cc3O)sc2c1 [Example 4, 2-(4-Chloro-2-hydroxyphenyl)-N-[2-(dimethylamino)ethyl]-N-methyl-1,3-benzothiazole-6-carboxamide]
- IC50: < 25 µM

Molecule: O=C(c1ccc2sc(-c3ccc(Cl)cc3O)nc2c1)N1CCCC1 [Example 51, 5-Chloro-2-[5-(pyrrolidin-1-ylcarbonyl)-1,3-benzothiazol-2-yl]phenol]
- IC50: < 25 µM

Molecule: COCCN1CCN(Cc2ccc3nc(-c4ccc(Cl)cc4O)sc3c2)CC1 [Example 26, 5-Chloro-2-(6-{[4-(2-methoxyethyl)piperazin-1-yl]methyl}-1,3-benzothiazol-2-yl)phenol]
- IC50: < 25 µM

Molecule: COc1ccc(O)c(-c2nc3ccc(C(=O)O)cc3s2)c1 [Example 3, 2-(2-Hydroxy-5-methoxyphenyl)-1,3-benzothiazole-6-carboxylic acid]
- IC50: < 25 µM

Molecule: COc1ccc(-c2nc3ccc(CN4CCCC4)cc3s2)c(O)c1 [Example 33, 5-Methoxy-2-[6-(pyrrolidin-1-ylmethyl)-1,3-benzothiazol-2-yl]phenol]
- IC50: < 25 µM

Molecule: COc1cccc(-c2ccc(O)c(-c3nc4ccc(C(=O)N(C)CCN(C)C)cc4s3)c2)c1 [Example 24, N-[2-(Dimethylamino)ethyl]-2-(4-hydroxy-3′-methoxy-1,1′-biphenyl-3-yl)-N-methyl-1,3-benzothiazole-6-carboxamide]
- IC50: < 25 µM

Molecule: O=C(c1ccc2sc(-c3ccccc3O)nc2c1)N1CCCC1 [Example 52, 2-[5-(Pyrrolidin-1-ylcarbonyl)-1,3-benzothiazol-2-yl]phenol]
- IC50: < 25 µM

Molecule: CN1CCN(Cc2ccc3nc(-c4ccc(Cl)cc4O)sc3c2)CC1 [Example 41, 5-Chloro-2-[6-(4-methylpiperazin-1-ylmethyl)-1,3-benzothiazol-2-yl]phenol]
- IC50: < 25 µM

Molecule: Oc1ccc(Cl)cc1-c1nc2ccc(CNCCCN3CCOCC3)cc2s1 [Example 37, 4-Chloro-2-(6-{[(3-morpholin-4-ylpropyl)amino]methyl}-1,3-benzothiazol-2-yl)phenol]
- IC50: < 25 µM

Molecule: O=C(O)c1ccc2nc(-c3ccc(Cl)cc3O)sc2c1 [Example 1, 2-(4-Chloro-2-hydroxyphenyl)-1,3-benzothiazole-6-carboxylic acid]
- IC50: < 25 µM

Molecule: Oc1ccc(F)cc1-c1nc2ccc(CN3CCCC3)cc2s1 [Example 28, 4-Fluoro-2-[6-(pyrrolidin-1-ylmethyl)-1,3-benzothiazol-2-yl]phenol]
- IC50: < 25 µM

Molecule: Nc1nccnc1-c1nc2ccc(C(=O)N3CCCC3)cc2s1 [Example 48, 3-[6-(Pyrrolidin-1-ylcarbonyl)-1,3-benzothiazol-2-yl]pyrazin-2-amine]
- IC50: < 25 µM

Molecule: CN(C)C(=O)c1ccc2sc(-c3ccccc3O)nc2c1 [Example 53, N,N-Dimethyl-2-(2-hydroxyphenyl)-1,3-benzothiazole-5-carboxamide]
- IC50: < 25 µM

Molecule: COc1ccc(O)c(-c2nc3ccc(C(=O)N4CCCC4)cc3s2)c1 [Example 10, 4-Methoxy-2-[6-(pyrrolidin-1-ylcarbonyl)-1,3-benzothiazol-2-yl]phenol]
- IC50: < 25 µM

Molecule: COc1cccc(O)c1-c1nc2ccc(C(=O)N3CCCC3)cc2s1 [Example 17]
- IC50: < 25 µM

Molecule: Oc1ccc2nc(-c3ccc(Cl)cc3O)sc2c1 [Example 49, 2-(4-Chloro-2-hydroxyphenyl)-1,3-benzothiazol-6-ol]
- IC50: < 25 µM

Molecule: O=C(c1ccc2nc(-c3ncccc3O)sc2c1)N1CCCC1 [Example 20, 2-[6-(Pyrrolidin-1-ylcarbonyl)-1,3-benzothiazol-2-yl]pyridin-3-ol]
- IC50: < 25 µM

Molecule: COc1ccc(-c2nc3ccc(C(=O)N4CCCC4)cc3s2)c(O)c1 [Example 13, 5-Methoxy-2-[6-(pyrrolidin-1-ylcarbonyl)-1,3-benzothiazol-2-yl]phenol]
- IC50: < 25 µM

Molecule: O=C(NCCCN1CCOCC1)c1ccc2nc(-c3cc(Cl)ccc3O)sc2c1 [Example 16, 2-(5-Chloro-2-hydroxyphenyl)-N-(3-morpholin-4-propyl)-1,3-benzothiazole-6-carboxamide]
- IC50: < 25 µM

Molecule: CN(C)Cc1ccc2nc(-c3ccc(Cl)cc3O)sc2c1 [Example 43, 5-Chloro-2-{6-[(dimethylamino)methyl]-1,3-benzothiazol-2-yl}phenol]
- IC50: < 25 µM

Molecule: CN(C)Cc1ccc2sc(-c3ccccc3O)nc2c1 [Example 55, 2-{5-[(Dimethylamino)methyl]-1,3-benzothiazol-2-yl}phenol]
- IC50: < 25 µM

Molecule: 2-(2-Hydroxy-1-methoxyphenyl)-N-(3-morpholin-4-ylpropyl)-1,3-benzothiazole-6-carboxamide [Example 9]
- IC50: < 25 µM
